Source: article PMC9999015
Results are given in words; binding and its absence hold for the method and conditions named. In cells and extracts the contact can be indirect. Some entries that bind do so weakly or less than the wild type.

The chains behind the UniProt entries cited, without tags or fusion partners.
UniProt Q13485: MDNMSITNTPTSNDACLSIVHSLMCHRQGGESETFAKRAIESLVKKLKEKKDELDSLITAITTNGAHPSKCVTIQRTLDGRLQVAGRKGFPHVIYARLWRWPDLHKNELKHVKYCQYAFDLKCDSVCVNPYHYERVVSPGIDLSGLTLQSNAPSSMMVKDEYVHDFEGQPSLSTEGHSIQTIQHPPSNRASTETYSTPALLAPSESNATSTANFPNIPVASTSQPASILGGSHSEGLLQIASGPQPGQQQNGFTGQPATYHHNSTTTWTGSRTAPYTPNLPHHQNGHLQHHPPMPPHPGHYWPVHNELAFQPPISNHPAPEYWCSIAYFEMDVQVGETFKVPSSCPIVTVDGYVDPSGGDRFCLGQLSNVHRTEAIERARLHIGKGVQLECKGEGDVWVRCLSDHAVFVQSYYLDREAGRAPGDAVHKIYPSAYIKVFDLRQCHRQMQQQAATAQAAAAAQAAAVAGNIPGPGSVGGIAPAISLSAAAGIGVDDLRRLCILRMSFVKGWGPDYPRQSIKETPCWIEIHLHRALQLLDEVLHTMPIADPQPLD

Target: Smad4 (human (endogenous in PANC-1)) (UniProt Q13485)
Assay: co-IP; endogenous proteins in PANC-1 lysate; pre-cleared lysate with anti-Smad4 antibody 1 h at 4°C, protein A magnetic beads, five washes, immunoblot for Prdm16; lysis buffer 25 mM Tris-HCl pH 7.2, 150 mM NaCl, 5 mM MgCl2, 5% glycerol, 1% NP40; cells with or without TGF-β1 for 48 h (interaction inhibited by TGF-β1); PANC-1 with SMAD4 gRNA as control

With “Prdm16 (PR domain containing 16) (from UniProt Q9HAZ2-1 1-1276)” as the substance, how does the binding read?
The binding was “binds”.
